According to PubChem BioAssay AID504648 (National Center for Advancing Translational Sciences (NCATS), 2011):
Out of some 390,000 compounds screened, about 610 (0.16%) were called active. Inconclusive means that the source gave no clear call. Such entries were picked first, then a sample of the others. The call rests on the fitted dose curve; in most records, active means well fitted inhibition curve with a large enough effect; inconclusive means small, poorly fitted or top-dose-only effect, or effect the other way, or another doubt; inactive means no such curve, though single readings can be large or run the other way. Potencies of inconclusive entries are doubtful fits and often do not repeat.

experiment: Nrf2 qHTS screen for inhibitors: counterscreen for cytotoxicity; details: A549 ARE-Fluc cells, CellTiter-Fluor viability, 18-24 h; activity change, negative = cytotoxicity: at 46 µM (top of the series)
Procedure, shortened: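 Cytotoxicity counterscreen: CellTiter-Fluor fluorescence was measured in A549 ARE_Fluc cells after 18-24 h of compound exposure in a concentration series. The subsequent BugLite luminescent read reports ARE-luciferase activity.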
On the % scale 0 is the no-effect control and ±100 the full control effect; potency means the concentration at half of the fitted maximal effect.

Row | SMILES | Potency | activity change, negative = cytotoxicity
1 | Cc1c(OC(C)C(=O)NCC2CCC(C(=O)O)CC2)ccc2c1oc(=O)c1ccccc12 (stereo not drawn) | inconclusive: 0.013 µM [activator, full curve, poor fit] | 
2 | CN(C)c1nc(NC(C)(C)C)nc(SCC(=O)Nc2ccccc2)n1 |  | inactive: -8.32%
3 | Cc1cc2cc(CNC(=S)Nc3ccc(OC(F)F)cc3)ccc2[nH]1 |  | inactive: 4.89%
4 | CN1CCN(c2ccccc2NC(=O)c2cc3c(s2)-c2ccccc2OC3)CC1 | inconclusive: 7.31 µM [activator, full curve] | 
5 | COc1ccc(Cc2noc(CN(C)CC3(N4CCOCC4)CCCCC3)n2)cc1OC | inconclusive: 0.291 µM [activator, full curve] | 
6 | O=C(COc1ccc(S(=O)(=O)N2CCCCC2)cc1)N1CCCCCC1 |  | inactive: -2.23%
7 | Cc1ccc(-n2nc3c([n+]2[O-])CCc2c-3no[n+]2[O-])cc1 | inconclusive: 11.6 µM [falling, partial curve, poor fit] | 
8 | COc1cccc(/C=C/C(=O)OCC(=O)c2c(N)n(C)c(=O)n(C)c2=O)c1 |  | inactive: -6.03%
9 | Fc1ccc(NCc2ccccc2-c2nnc(-c3ccccc3Cl)o2)cc1Cl |  | inactive: -0.018%
10 | O=C1CC(c2ccccc2)CC(=O)N1c1ccccc1 | inconclusive: 16.4 µM [falling, partial curve, poor fit] | 
11 | O=C(C1=C[C@H](C2CCCCC2)C[C@H](OCc2ccc(CO)cc2)O1)N1CCN(Cc2ccc3c(c2)OCO3)CC1 | inconclusive: 29.1 µM [falling, partial curve, poor fit] | 
12 | Cc1ccc(NC(=S)c2nc3ccccc3s2)cc1 |  | inactive: -3.02%
13 | O=C(CN1CCCCC1)Nc1ccccc1NC(=O)CN1CCCCC1 | inconclusive: 20.6 µM [falling, single point] | 
14 | CCc1ccc2oc(C(=O)N(Cc3cccc(Cl)c3)Cc3ccco3)c(C)c2c1 |  | inactive: 8.47%
15 | O=C1c2ccccc2C(=O)N1c1cc(=O)c2ccccc2[nH]1 |  | inactive: 3.74%
16 | Nc1nc(O)c(Sc2ccccc2[N+](=O)[O-])c(=O)[nH]1 | inconclusive: 16.4 µM [falling, partial curve] | 
17 | CC1(C)Cc2c(ccc3ccccc23)C(c2cc3ccccc3oc2=O)=N1 | inconclusive: 6.51 µM [activator, partial curve, poor fit] | 
18 | Cc1ccc2cc(C(c3nnnn3C3CCCC3)N(Cc3ccccc3)Cc3ccco3)c(=O)[nH]c2c1 (stereo not drawn) |  | inactive: -16.2%
19 | Cc1ccc(CCNC(=O)Cn2ncc3c(=O)oc4ccccc4c32)cc1 |  | inactive: 5.15%
20 | Cc1ccccc1OCC(=O)Nc1ccc2c(c1)C(=O)c1ccccc1C2=O | inconclusive: 29.1 µM [falling, partial curve, poor fit] | 
21 | CCOC(=O)CSC1=N/C(=C\c2ccc(OC)c(OC)c2)C(=O)N1C | inconclusive: 18.4 µM [falling, single point] | 
22 | CC(=NNC(=S)N1CCN(C2CCCCCC2)CC1)c1ccccn1 | inconclusive: 20.6 µM [falling, single point] | 
23 | CCOC(=O)N/N=C\c1ccc([N+](=O)[O-])o1 |  | inactive: -2.15%
24 | CCOC(=O)c1c(C)[nH]c(C(=O)NNC(=O)c2ccc(C(C)(C)C)cc2)c1C | inconclusive: 23.1 µM [activator, partial curve, poor fit] | 
25 | CCN(CC)S(=O)(=O)c1ccc(O)c(NC(=O)c2cc(-c3cc(OC)c(OC)c(OC)c3)nc3ccccc23)c1 |  | inactive: -10.7%

Row | SMILES | Potency | activity change, negative = cytotoxicity
26 | Cc1ccc(OCCCCN2CCc3ccccc3C2)c(C)c1 |  | inactive: 9.38%
27 | CCCNC(=O)COC(=O)c1ccccc1C(=O)c1ccc(Cl)c([N+](=O)[O-])c1 |  | inactive: 1.38%
28 | O=C(Nc1nnc(Cc2ccc(Cl)cc2)s1)c1cccs1 | inconclusive: 14.6 µM [activator, partial curve, poor fit] | 
29 | COc1ccc(C(=O)O/N=C/c2c(C(F)(F)F)nn(C)c2SCc2ccccc2Cl)cc1 | inconclusive: 18.4 µM [falling, single point] | 
30 | COc1cc(C(=O)Oc2ccccc2/C=N/NC(=O)c2ccc(Cl)cc2Cl)cc(OC)c1OC | inconclusive: 9.2 µM [falling, partial curve] | 
31 | O=C(C(Cl)Cl)N1CCN(Cc2ccc3c(c2)OCO3)CC1 |  | inactive: -3.14%
32 | COc1ccc(CCN2C(=O)c3[nH]nc(-c4ccccc4O)c3C2c2ccc(C)cc2)cc1OC (stereo not drawn) | inconclusive: 32.6 µM [falling, partial curve, poor fit] | 
33 | CCN(CC(=O)Nc1cccc(OC)c1)C(=O)c1cccc(S(=O)(=O)N2CCc3ccccc32)c1 | inconclusive: 4.11 µM [falling, partial curve, poor fit] | 
34 | CCSc1nnc(NC(=O)Nc2cccc(C)c2)s1 |  | inactive: 1.67%
35 | CCN(Cc1ccc(C#CCCO)cc1)CC1CCCN(CCc2cccc(F)c2)C1 (stereo not drawn) | inconclusive: 13 µM [falling, partial curve] | 
36 | Cc1ccc(CN2C(=O)CC(c3ccc(Cl)cc3)c3c(C)nn(-c4nc(C)cc(C)n4)c32)cc1 (stereo not drawn) |  | inactive: -17.5%
37 | COc1ccc(C=C2SC(=S)NC2=O)c(OC)c1OC | active: 14.6 µM | 
38 | COC(=O)c1cc2oc(C)cc2n1CC(=O)Nc1ccc(OC)c(OC)c1 |  | inactive: 4.7%
39 | O=C(Nc1nc2c(F)cc(F)cc2s1)c1ccc([N+](=O)[O-])o1 |  | inactive: -1.51%
40 | CC(NC(=O)CCNC(=O)N1CCn2c1nc1ccccc12)c1ccccc1 (stereo not drawn) |  | inactive: 10.7%
41 | COc1ccc(NC(=S)Nc2ccccn2)cc1 |  | inactive: -1.62%
42 | O=C1CCCN1C(=O)COc1ccc([N+](=O)[O-])cc1 | inconclusive: 0.82 µM [falling, full curve, poor fit] | 
43 | CCCN1CNc2c(c(=O)[nH]c(=S)n2CCc2ccccc2C)C1 |  | inactive: 6.54%
44 | C=CCN1C(=O)C2(NC(=O)c3ccccc3N2)c2ccccc21 (stereo not drawn) | inconclusive: 16.4 µM [falling, partial curve, poor fit] | 
45 | CCOP(=O)(c1ccccc1)c1nc(-c2ccccc2Cl)oc1N1CCCCC1 (stereo not drawn) | inconclusive: 29.1 µM [falling, single point] | 
46 | Cc1cc(SCC(=O)NCc2ccccc2Cl)nc(=O)[nH]1 |  | inactive: 0.753%
47 | CCOc1ccc(NC(=S)NCCCc2ccccc2)cc1 |  | inactive: 3.09%
48 | O=C(NC1CCCC1)C(c1ccc(O)cc1)N(CC1CCCO1)C(=O)C1COc2ccccc2O1 (stereo not drawn) |  | inactive: 1.82%
49 | CCCc1cc2c(c(NC(C)=O)n1)c(=O)oc1ccccc12 | inconclusive: 20.6 µM [activator, partial curve, poor fit] | 
50 | COc1ccc2c(CNCc3cccs3)c(C(=O)O)n(Cc3cccc(F)c3)c2c1 | inconclusive: 16.4 µM [falling, partial curve, poor fit] | 

Row | SMILES | Potency | activity change, negative = cytotoxicity
51 | Cc1ccc(C)c(N2CCN(C(=O)CCc3nc(-c4cccc(Br)c4)no3)CC2)c1 |  | inactive: -7.84%
52 | COc1ccc(CCC(=O)Nc2nnc(C(F)(F)F)s2)cc1 |  | inactive: -6.08%
53 | N=C1S/C(=C\c2ccco2)C(=O)N1c1nccs1 | inconclusive: 14.6 µM [falling, partial curve] | 
54 | Cc1ccc2[nH]c(=O)c(CN(CCCN3CCOCC3)Cc3nnnn3C3CCCC3)cc2c1 | inconclusive: 3.66 µM [activator, full curve, poor fit] | 
55 | O=C(O)c1cccc(-c2cccc(-c3nn4c(=O)cc(N5CCNCC5)nc4s3)c2)c1 |  | inactive: -7.91%
56 | CCOC(=O)C1=C(NC(=S)NC(=O)c2ccccc2)c2ccccc2CC1(C)CC (stereo not drawn) | inconclusive: 29.1 µM [falling, partial curve, poor fit] | 
57 | CCC(=O)Nc1c(C#N)c2nc3ccccc3nc2n1-c1ccccc1C |  | inactive: 9.48%
58 | COC(=O)c1ccc(N2CCN(C(=O)C3CC3)CC2)c([N+](=O)[O-])c1 |  | inactive: -7.67%
59 | CCc1cc(=S)n2c([nH]c3ccccc32)c1C#N |  | inactive: -27.6%
60 | CCOc1cc(CNc2ccc(N3CCCC3)cc2)cc(Cl)c1OC | inconclusive: 29.1 µM [falling, single point] | 
61 | Cc1cc(C(=O)NC2CCCc3c2cnn3-c2ccc(C)c(C)c2)n(C)n1 (stereo not drawn) |  | inactive: -21.3%
62 | CC(C)(CO)NCc1c(OCc2ccc(Cl)cc2)ccc2ccccc12 | inconclusive: 6.51 µM [falling, partial curve] | 
63 | COc1cc2cc(C)c(SCC(=O)N3CCOCC3)nc2cc1OC |  | inactive: -12.8%
64 | CCC1CCCCN1C(=O)CSc1nc(-c2ccc(OC)c(OC)c2)cc(C(F)(F)F)n1 (stereo not drawn) | inconclusive: 32.6 µM [falling, partial curve, poor fit] | 
65 | CCCCc1cc2c(cc1NC(=O)CN1CCCCC1)OCCO2 | inconclusive: 2.91 µM [activator, full curve, poor fit] | 
66 | Fc1ccc(Nc2nc(SCc3ccccc3F)nc3ccccc23)cc1 | inconclusive: 32.6 µM [falling, partial curve, poor fit] | 
67 | O=C(NNc1nc(-c2ccc(F)cc2)cs1)c1ccccc1 | inconclusive: 23.1 µM [falling, single point] | 
68 | CCOc1ccc2nc(N3CCCC(C(=O)Nc4ccc(OC)c(Cl)c4)C3)sc2c1 (stereo not drawn) |  | inactive: -6.99%
69 | CCC(=O)Nc1nc2ccccc2n1Cc1ccccc1Cl | inconclusive: 11.6 µM [falling, partial curve, poor fit] | 
70 | CCN(C(=O)c1ccc(C(C)(C)C)cc1)c1nnc(Cn2nnc3ccccc32)s1 | inconclusive: 9.2 µM [falling, partial curve, poor fit] | 
71 | Cc1cccc(NC(=S)/N=C(\N)Nc2nc(C)c3cc(C)ccc3n2)c1 | inconclusive: 23.1 µM [falling, partial curve, poor fit] | 
72 | CCc1cc(=O)oc2cc(C)cc(OC(C)C(=O)NC3CCN(Cc4ccccc4)CC3)c12 (stereo not drawn) | inconclusive: 29.1 µM [falling, single point] | 
73 | COc1cc(NC(=O)CN2c3ccccc3CC2C)cc(OC)c1OC (stereo not drawn) |  | inactive: -0.441%

Ordered by formula weight (low to high): part of the list above.
Row | SMILES | Potency | activity change, negative = cytotoxicity
60 | CCOc1cc(CNc2ccc(N3CCCC3)cc2)cc(Cl)c1OC | inconclusive: 29.1 µM [falling, single point] | 
61 | Cc1cc(C(=O)NC2CCCc3c2cnn3-c2ccc(C)c(C)c2)n(C)n1 (stereo not drawn) |  | inactive: -21.3%
66 | Fc1ccc(Nc2nc(SCc3ccccc3F)nc3ccccc23)cc1 | inconclusive: 32.6 µM [falling, partial curve, poor fit] | 
70 | CCN(C(=O)c1ccc(C(C)(C)C)cc1)c1nnc(Cn2nnc3ccccc32)s1 | inconclusive: 9.2 µM [falling, partial curve, poor fit] | 
54 | Cc1ccc2[nH]c(=O)c(CN(CCCN3CCOCC3)Cc3nnnn3C3CCCC3)cc2c1 | inconclusive: 3.66 µM [activator, full curve, poor fit] | 
